Where two headings read alike, the source gives them in different places. Results are given in words; binding and its absence hold for the method and conditions named. Binding seen in cells or lysates may run through a third protein. These calls come from enrichment with a bait or labelling near it, and not all partners need be listed. One block for each molecule: values may come before it.
Experiments:
[1] = molecular target: T1, Enp1-TAP (S. cerevisiae) (UniProt P38333); experiment: affinity purification with mass spectrometry; Enp1-TAP captured from yeast extract on rabbit IgG Dynabeads, TEV elution, pre-ribosomal particles pelleted through a sucrose cushion; excised gel bands and the whole sample by LC-MS/MS; cells with Bud23 (AJY2665) or depleted of Bud23-AID (AJY4395, 0.5 mM auxin, 2 hours); 50 mM Tris-HCl pH 7.6, 100 mM KCl, 5 mM MgCl2, 0.1% TritonX-100, 4°C
T1 sequence: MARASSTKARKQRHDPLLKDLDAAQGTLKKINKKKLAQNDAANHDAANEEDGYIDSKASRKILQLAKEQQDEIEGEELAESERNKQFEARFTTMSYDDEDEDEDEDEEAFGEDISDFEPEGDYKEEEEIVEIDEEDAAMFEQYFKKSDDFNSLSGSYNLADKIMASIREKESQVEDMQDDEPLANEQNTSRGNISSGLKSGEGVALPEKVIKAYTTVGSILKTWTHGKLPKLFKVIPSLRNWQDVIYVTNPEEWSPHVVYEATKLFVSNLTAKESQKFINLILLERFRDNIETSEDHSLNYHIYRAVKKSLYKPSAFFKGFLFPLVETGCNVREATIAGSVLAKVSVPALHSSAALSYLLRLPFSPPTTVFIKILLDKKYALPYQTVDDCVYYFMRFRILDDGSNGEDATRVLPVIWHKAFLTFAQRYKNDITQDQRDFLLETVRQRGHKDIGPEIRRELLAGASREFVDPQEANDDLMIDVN

Amino acid sequences for entries named in this document (tags omitted).
UniProt P40160: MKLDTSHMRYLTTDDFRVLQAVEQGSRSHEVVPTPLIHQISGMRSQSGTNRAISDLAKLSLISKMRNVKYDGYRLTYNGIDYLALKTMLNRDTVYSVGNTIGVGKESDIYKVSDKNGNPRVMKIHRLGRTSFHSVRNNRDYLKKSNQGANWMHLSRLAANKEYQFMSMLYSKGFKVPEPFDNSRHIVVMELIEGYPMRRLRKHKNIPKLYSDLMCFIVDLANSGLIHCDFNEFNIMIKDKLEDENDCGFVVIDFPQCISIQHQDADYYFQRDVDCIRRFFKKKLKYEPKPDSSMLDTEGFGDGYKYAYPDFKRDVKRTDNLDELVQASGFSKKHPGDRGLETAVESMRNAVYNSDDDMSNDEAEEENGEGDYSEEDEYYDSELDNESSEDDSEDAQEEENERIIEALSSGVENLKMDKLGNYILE

[2] = molecular target: T1, Enp1-TAP (S. cerevisiae); experiment: as above; remark: listed apart in the source

B1: Tsr1 (protein, UniProt Q07381 1-788)
chain: MAGHSHRSSLKNGHKSYKSKHASKGALKRLYKGKVEKEPVGTGKPDKQVSKLQRKNKAKQLRAQRILDSIENRKLFEGKNGAAKIITIVPLVNDLDPLDILYKLLKCADDEGIMVQEVDSKRIFNVHIKKFKSNLKIIIPDMTNFLNILDCAKVADFVVFGLSGVQEVDEEFGEQIIRALELQGIASYIGVISNLSAVHEKEKFQLDVKQSLESYFKHFFPSEERVYNLEKNSDALNVLRTLCQRLPRSINWRDNRGYVVADFVDFVETSPDSGDLVIEGTVRGIGFNANRLVHIPDFGDFQLNKIEKISESSQKRKIIKEKATDSLSLELDLQTVFESNMNRDTLDEYAPEGTEDWSDYDEDFEYDGLTTARYDDHGFLPGREQTSKKAAVPKGTSDYQAKWYLDDVIDANEEEEAEQTNGKDETMMEIDDEMMVEQDNEEVAGDEEYDIEDNEGFEELSPEEEERQLREFRDMEKEDREFPDEIELEPSESAIERLKRYRGLKNLYNCDWQVDEKDPSSPAEWKRLLRIGNYKNTKNRIIKETKNEAQAIAGDRIRMFIRFPKFLLEKIQDPKQLLFAVYGLLLHEHKNAVVNFSLQRWEQYDKPVPSQEPIVVQYGVRRYTIQPLFSQGSNSPNNVHKYERFLHPDTVSVATCIAPVDFTQSPAIFFKPSPTDAKNIELIGHGTFLNADHSRILAKRAILTGHPFRFHKTVVTVRYMFFRPEDVEWFKSIPLFTKSGRSGFIKESLGTHGYFKATFDGKLSAQDVVAMSLYKRMWPMPSLPWNGM
- binding [2]: binds

B3: Slx9 (protein, UniProt P53251 1-210)
chain: MVAKKRNTLRSKVSARNSQNFGPDVANNGILDESYDIESDPRAFLHQPKETKKEKLLNRQNTFLSNLKGKSTLNDGIAANFDGISKSSIRRRKRKLREELKPRMQDLLTSLEQEKDLRGIIENSSKDMNNDDDIDMDSKIRFVDTKEMNLKKIEPGSVRIKKNQPNIRNQKGAKALAANETARFNQVLTNQDFQKNPFGALREVIKLQKQ
- binding [2]: binds

B4: Rio1 (protein, UniProt Q12196 1-484)
chain: MSLEDKFDSLSVSQGASDHINNQLLEKYSHKIKTDELSFSRAKTSKDKANRATVENVLDPRTMRFLKSMVTRGVIADLNGCLSTGKEANVYHAFAGTGKAPVIDEETGQYEVLETDGSRAEYAIKIYKTSILVFKDRERYVDGEFRFRNSRSQHNPRKMIKIWAEKEFRNLKRIYQSGVIPAPKPIEVKNNVLVMEFLSRGNGFASPKLKDYPYKNRDEIFHYYHTMVAYMRLLYQVCRLVHADLSEYNTIVHDDKLYMIDVSQSVEPEHPMSLDFLRMDIKNVNLYFEKMGISIFPERVIFQFVISETLEKFKGDYNNISALVAYIASNLPIKSTEQDEAEDEIFRSLHLVRSLGGLEERDFDRYTDGKFDLLKSLIAHDNERNFAASEQFEFDNADHECSSGTEEFSDDEEDGSSGSEEDDEEEGEYYDDDEPKVLKGKKHEDKDLKKLRKQEAKDAKREKRKTKVKKHIKKKLVKKTKSKK
- binding [2]: binds

Other lines, results leading:

- binding [1]: binds
Molecule: Rio2 (from UniProt P40160 1-425)

- binding [2]: binds
B2: Nob1 (protein, UniProt Q08444 1-459)
chain: MTENQTAHVRALILDATPLITQSYTHYQNYAQSFYTTPTVFQEIKDAQARKNLEIWQSLGTLKLVHPSENSIAKVSTFAKLTGDYSVLSANDLHILALTYELEIKLNNGDWRLRKKPGDALDASKADVGTDGKQKLTEDNKKEEDSESVPKKKNKRRGGKKQKAKREAREAREAENANLELESKAEEHVEEAGSKEQICNDENIKESSDLNEVFEDADDDGDWITPENLTEAIIKDSGEDTTGSLGVEASEEDRHVALNRPENQVALATGDFAVQNVALQMNLNLMNFMSGLKIKRIRNYMLRCHACFKIFPLPKDGKPKHFCASCGGQGTLLRCAVSVDSRTGNVTPHLKSNFQWNNRGNRYSVASPLSKNSQKRYGKKGHVHSKPQENVILREDQKEYEKVIKQEEWTRRHNEKILNNWIGGGSADNYISPFAITGLKQHNVRIGKGRYVNSSKRRS
